Here are results for one molecule from PMC7615710.

By UniProt entry, the sequences of proteins in these tests, tags left out. Residues count along the entry.
UniProt Q99IB8, residues 1977-2442: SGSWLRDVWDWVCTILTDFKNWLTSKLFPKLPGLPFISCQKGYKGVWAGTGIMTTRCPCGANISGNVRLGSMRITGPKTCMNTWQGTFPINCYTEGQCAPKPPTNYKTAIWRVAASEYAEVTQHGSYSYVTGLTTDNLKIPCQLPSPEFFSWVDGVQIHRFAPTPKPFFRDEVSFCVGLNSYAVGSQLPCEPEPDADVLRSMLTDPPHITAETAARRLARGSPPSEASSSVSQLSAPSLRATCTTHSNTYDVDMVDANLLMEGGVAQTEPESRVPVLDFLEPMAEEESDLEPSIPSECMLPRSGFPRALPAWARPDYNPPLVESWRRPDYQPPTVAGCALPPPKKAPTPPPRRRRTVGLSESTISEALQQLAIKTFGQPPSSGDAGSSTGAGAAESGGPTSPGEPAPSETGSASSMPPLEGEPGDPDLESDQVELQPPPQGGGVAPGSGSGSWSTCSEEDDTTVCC

For this experiment, the target named is HCV NS5A expressed from the subgenomic replicon N17/JFH (HCV (replicon N17/JFH)) (UniProt Q99IB8). Nature of the experiment: co-IP.

These are yes or no findings as the source states them, for the method shown. Binding seen in cells or lysates may run through a third protein. Some binding calls cover weakened binding; strength is not graded here.

B1: ASPP2 (apoptosis-stimulating protein of p53 2), endogenous (protein, UniProt Q13625 1-1128)
chain: MMPMFLTVYLSNNEQHFTEVPVTPETICRDVVDLCKEPGESDCHLAEVWCGSERPVADNERMFDVLQRFGSQRNEVRFFLRHERPPGRDIVSGPRSQDPSLKRNGVKVPGEYRRKENGVNSPRMDLTLAELQEMASRQQQQIEAQQQLLATKEQRLKFLKQQDQRQQQQVAEQEKLKRLKEIAENQEAKLKKVRALKGHVEQKRLSNGKLVEEIEQMNNLFQQKQRELVLAVSKVEELTRQLEMLKNGRIDSHHDNQSAVAELDRLYKELQLRNKLNQEQNAKLQQQRECLNKRNSEVAVMDKRVNELRDRLWKKKAALQQKENLPVSSDGNLPQQAASAPSRVAAVGPYIQSSTMPRMPSRPELLVKPALPDGSLVIQASEGPMKIQTLPNMRSGAASQTKGSKIHPVGPDWSPSNADLFPSQGSASVPQSTGNALDQVDDGEVPLREKEKKVRPFSMFDAVDQSNAPPSFGTLRKNQSSEDILRDAQVANKNVAKVPPPVPTKPKQINLPYFGQTNQPPSDIKPDGSSQQLSTVVPSMGTKPKPAGQQPRVLLSPSIPSVGQDQTLSPGSKQESPPAAAVRPFTPQPSKDTLLPPFRKPQTVAASSIYSMYTQQQAPGKNFQQAVQSALTKTHTRGPHFSSVYGKPVIAAAQNQQQHPENIYSNSQGKPGSPEPETEPVSSVQENHENERIPRPLSPTKLLPFLSNPYRNQSDADLEALRKKLSNAPRPLKKRSSITEPEGPNGPNIQKLLYQRTTIAAMETISVPSYPSKSASVTASSESPVEIQNPYLHVEPEKEVVSLVPESLSPEDVGNASTENSDMPAPSPGLDYEPEGVPDNSPNLQNNPEEPNPEAPHVLDVYLEEYPPYPPPPYPSGEPEGPGEDSVSMRPPEITGQVSLPPGKRTNLRKTGSERIAHGMRVKFNPLALLLDSSLEGEFDLVQRIIYEVDDPSLPNDEGITALHNAVCAGHTEIVKFLVQFGVNVNAADSDGWTPLHCAASCNNVQVCKFLVESGAAVFAMTYSDMQTAADKCEEMEEGYTQCSQFLYGVQEKMGIMNKGVIYALWDYEPQNDDELPMKEGDCMTIIHREDEDEIEWWWARLNDKEGYVPRNLLGLYPRIKPRQRSLA
With B1, the binding result is listed as “binds”.
